Our source for the binding values is publication PMC8394137.

Amino acid sequences for entries named in this document (tags omitted).
UniProt O43736: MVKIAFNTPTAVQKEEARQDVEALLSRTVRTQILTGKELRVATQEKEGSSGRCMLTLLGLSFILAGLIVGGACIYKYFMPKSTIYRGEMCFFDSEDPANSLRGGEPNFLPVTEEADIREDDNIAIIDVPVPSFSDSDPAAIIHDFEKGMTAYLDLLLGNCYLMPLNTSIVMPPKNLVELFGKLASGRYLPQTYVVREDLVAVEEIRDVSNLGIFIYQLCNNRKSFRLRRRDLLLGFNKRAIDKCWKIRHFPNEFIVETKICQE

These are yes or no findings as the source states them, for the method shown. Binding seen in cells or lysates may run through a third protein. These calls come from enrichment with a bait or labelling near it, and not all partners need be listed.

Sequences and labels used below:
B1: G3BP2 (protein, UniProt Q9UN86 1-482)
chain: MVMEKPSPLLVGREFVRQYYTLLNKAPEYLHRFYGRNSSYVHGGVDASGKPQEAVYGQNDIHHKVLSLNFSECHTKIRHVDAHATLSDGVVVQVMGLLSNSGQPERKFMQTFVLAPEGSVPNKFYVHNDMFRYEDEVFGDSEPELDEESEDEVEEEQEERQPSPEPVQENANSGYYEAHPVTNGIEEPLEESSHEPEPEPESETKTEELKPQVEEKNLEELEEKSTTPPPAEPVSLPQEPPKAFSWASVTSKNLPPSGTVSSSGIPPHVKAPVSQPRVEAKPEVQSQPPRVREQRPRERPGFPPRGPRPGRGDMEQNDSDNRRIIRYPDSHQLFVGNLPHDIDENELKEFFMSFGNVVELRINTKGVGGKLPNFGFVVFDDSEPVQRILIAKPIMFRGEVRLNVEEKKTRAARERETRGGGDDRRDIRRNDRGPGGPRGIVGGGMMRDRDGRGPPPRGGMAQKLGSGRGTGQMEGRFTGQRR
B2: GANAB (protein, UniProt Q14697 29-944)
chain: ITLAVDRSNFKTCEESSFCKRQRSIRPGLSPYRALLDSLQLGPDSLTVHLIHEVTKVLLVLELQGLQKNMTRFRIDELEPRRPRYRVPDVLVADPPIARLSVSGRDENSVELTMAEGPYKIILTARPFRLDLLEDRSLLLSVNARGLLEFEHQRAPRVSQGSKDPAEGDGAQPEETPRDGDKPEETQGKAEKDEPGAWEETFKTHSDSKPYGPMSVGLDFSLPGMEHVYGIPEHADNLRLKVTEGGEPYRLYNLDVFQYELYNPMALYGSVPVLLAHNPHRDLGIFWLNAAETWVDISSNTAGKTLFGKMMDYLQGSGETPQTDVRWMSETGIIDVFLLLGPSISDVFRQYASLTGTQALPPLFSLGYHQSRWNYRDEADVLEVDQGFDDHNLPCDVIWLDIEHADGKRYFTWDPSRFPQPRTMLERLASKRRKLVAIVDPHIKVDSGYRVHEELRNLGLYVKTRDGSDYEGWCWPGSAGYPDFTNPTMRAWWANMFSYDNYEGSAPNLFVWNDMNEPSVFNGPEVTMLKDAQHYGGWEHRDVHNIYGLYVHMATADGLRQRSGGMERPFVLARAFFAGSQRFGAVWTGDNTAEWDHLKISIPMCLSLGLVGLSFCGADVGGFFKNPEPELLVRWYQMGAYQPFFRAHAHLDTGRREPWLLPSQHNDIIRDALGQRYSLLPFWYTLLYQAHREGIPVMRPLWVQYPQDVTTFNIDDQYLLGDALLVHPVSDSGAHGVQVYLPGQGEVWYDIQSYQKHHGPQTLYLPVTLSSIPVFQRGGTIVPRWMRVRRSSECMKDDPITLFVALSPQGTAQGELFLDDGHTFNYQTRQEFLLRRFSFSGNTLVSSSADPEGHFETPIWIERVVIIGAGKPAAVVLQTKGSPESRLSFQHDPETSVLVLRKPGINVASDWSIHLR
B3: NUP93 (protein, UniProt Q8N1F7 1-819)
chain: MDTEGFGELLQQAEQLAAETEGISELPHVERNLQEIQQAGERLRSRTLTRTSQETADVKASVLLGSRGLDISHISQRLESLSAATTFEPLEPVKDTDIQGFLKNEKDNALLSAIEESRKRTFGMAEEYHRESMLVEWEQVKQRILHTLLASGEDALDFTQESEPSYISDVGPPGRSSLDNIEMAYARQIYIYNEKIVNGHLQPNLVDLCASVAELDDKSISDMWTMVKQMTDVLLTPATDALKNRSSVEVRMEFVRQALAYLEQSYKNYTLVTVFGNLHQAQLGGVPGTYQLVRSFLNIKLPAPLPGLQDGEVEGHPVWALIYYCMRCGDLLAASQVVNRAQHQLGEFKTWFQEYMNSKDRRLSPATENKLRLHYRRALRNNTDPYKRAVYCIIGRCDVTDNQSEVADKTEDYLWLKLNQVCFDDDGTSSPQDRLTLSQFQKQLLEDYGESHFTVNQQPFLYFQVLFLTAQFEAAVAFLFRMERLRCHAVHVALVLFELKLLLKSSGQSAQLLSHEPGDPPCLRRLNFVRLLMLYTRKFESTDPREALQYFYFLRDEKDSQGENMFLRCVSELVIESREFDMILGKLENDGSRKPGVIDKFTSDTKPIINKVASVAENKGLFEEAAKLYDLAKNADKVLELMNKLLSPVVPQISAPQSNKERLKNMALSIAERYRAQGISANKFVDSTFYLLLDLITFFDEYHSGHIDRAFDIIERLKLVPLNQESVEERVAAFRNFSDEIRHNLSEVLLATMNILFTQFKRLKGTSPSSSSRPQRVIEDRDSQLRSQARTLITFAGMIPYRTSGDTNARLVQMEVLMN
B4: NUFIP2 (protein, UniProt Q7Z417 1-695)
chain: MEEKPGQPQPQHHHSHHHPHHHPQQQQQQPHHHHHYYFYNHSHNHHHHHHHQQPHQYLQHGAEGSPKAQPKPLKHEQKHTLQQHQETPKKKTGYGELNGNAGEREISLKNLSSDEATNPISRVLNGNQQVVDTSLKQTVKANTFGKAGIKTKNFIQKNSMDKKNGKSYENKSGENQSVDKSDTIPIPNGVVTNNSGYITNGYMGKGADNDGSGSESGYTTPKKRKARRNSAKGCENLNIVQDKIMQQETSVPTLKQGLETFKPDYSEQKGNRVDGSKPIWKYETGPGGTSRGKPAVGDMLRKSSDSKPGVSSKKFDDRPKGKHASAVASKEDSWTLFKPPPVFPVDNSSAKIVPKISYASKVKENLNKTIQNSSVSPTSSSSSSSSTGETQTQSSSRLSQVPMSALKSVTSANFSNGPVLAGTDGNVYPPGGQPLLTTAANTLTPISSGTDSVLQDMSLTSAAVEQIKTSLFIYPSNMQTMLLSTAQVDLPSQTDQQNLGDIFQNQWGLSFINEPSAGPETVTGKSSEHKVMEVTFQGEYPATLVSQGAEIIPSGTEHPVFPKAYELEKRTSPQVLGSILKSGTTSESGALSLEPSHIGDLQKADTSSQGALVFLSKDYEIESQNPLASPTNTLLGSAKEQRYQRGLERNDSWGSFDLRAAIVYHTKEMESIWNLQKQDPKRIITYNEAMDSPDQ
B5: HNRNPR (protein, UniProt O43390 1-633)
chain: MANQVNGNAVQLKEEEEPMDTSSVTHTEHYKTLIEAGLPQKVAERLDEIFQTGLVAYVDLDERAIDALREFNEEGALSVLQQFKESDLSHVQNKSAFLCGVMKTYRQREKQGSKVQESTKGPDEAKIKALLERTGYTLDVTTGQRKYGGPPPDSVYSGVQPGIGTEVFVGKIPRDLYEDELVPLFEKAGPIWDLRLMMDPLSGQNRGYAFITFCGKEAAQEAVKLCDSYEIRPGKHLGVCISVANNRLFVGSIPKNKTKENILEEFSKVTEGLVDVILYHQPDDKKKNRGFCFLEYEDHKSAAQARRRLMSGKVKVWGNVVTVEWADPVEEPDPEVMAKVKVLFVRNLATTVTEEILEKSFSEFGKLERVKKLKDYAFVHFEDRGAAVKAMDEMNGKEIEGEEIEIVLAKPPDKKRKERQAARQASRSTAYEDYYYHPPPRMPPPIRGRGRGGGRGGYGYPPDYYGYEDYYDDYYGYDYHDYRGGYEDPYYGYDDGYAVRGRGGGRGGRGAPPPPRGRGAPPPRGRAGYSQRGAPLGPPRGSRGGRGGPAQQQRGRGSRGSRGNRGGNVGGKRKADGYNQPDSKRRQTNNQQNWGSQPIAQQPLQQGGDYSGNYGYNNDNQEFYQDTYGQQWK
B6: HSD17B12 (protein, UniProt Q53GQ0 1-312)
chain: MESALPAAGFLYWVGAGTVAYLALRISYSLFTALRVWGVGNEAGVGPGLGEWAVVTGSTDGIGKSYAEELAKHGMKVVLISRSKDKLDQVSSEIKEKFKVETRTIAVDFASEDIYDKIKTGLAGLEIGILVNNVGMSYEYPEYFLDVPDLDNVIKKMININILSVCKMTQLVLPGMVERSKGAILNISSGSGMLPVPLLTIYSATKTFVDFFSQCLHEEYRSKGVFVQSVLPYFVATKLAKIRKPTLDKPSPETFVKSAIKTVGLQSRTNGYLIHALMGSIISNLPSWIYLKIVMNMNKSTRAHYLKKTKKN
B7: SLC25A3 (protein, UniProt Q00325 50-362)
chain: AVEEQYSCDYGSGRFFILCGLGGIISCGTTHTALVPLDLVKCRMQVDPQKYKGIFNGFSVTLKEDGVRGLAKGWAPTFLGYSMQGLCKFGFYEVFKVLYSNMLGEENTYLWRTSLYLAASASAEFFADIALAPMEAAKVRIQTQPGYANTLRDAAPKMYKEEGLKAFYKGVAPLWMRQIPYTMMKFACFERTVEALYKFVVPKPRSECSKPEQLVVTFVAGYIAGVFCAIVSHPADSVVSVLNKEKGSSASLVLKRLGFKGVWKGLFARIIMIGTLTALQWFIYDSVKVYFRLPRPPPPEMPESLKKKLGLTQ
B8: LMAN1 (protein, UniProt P49257 31-510)
chain: DGVGGDPAVALPHRRFEYKYSFKGPHLVQSDGTVPFWAHAGNAIPSSDQIRVAPSLKSQRGSVWTKTKAAFENWEVEVTFRVTGRGRIGADGLAIWYAENQGLEGPVFGSADLWNGVGIFFDSFDNDGKKNNPAIVIIGNNGQIHYDHQNDGASQALASCQRDFRNKPYPVRAKITYYQNTLTVMINNGFTPDKNDYEFCAKVENMIIPAQGHFGISAATGGLADDHDVLSFLTFQLTEPGKEPPTPDKEISEKEKEKYQEEFEHFQQELDKKKEEFQKGHPDLQGQPAEEIFESVGDRELRQVFEGQNRIHLEIKQLNRQLDMILDEQRRYVSSLTEEISKRGAGMPGQHGQITQQELDTVVKTQHEILRQVNEMKNSMSETVRLVSGMQHPGSAGGVYETTQHFIDIKEHLHIVKRDIDNLVQRNMPSNEKPKCPELPPFPSCLSTVHFIIFVVVQTVLFIGYIMYRSQQEAAAKKFF
B9: MARS (protein, UniProt P56192 1-900)
chain: MRLFVSDGVPGCLPVLAAAGRARGRAEVLISTVGPEDCVVPFLTRPKVPVLQLDSGNYLFSTSAICRYFFLLSGWEQDDLTNQWLEWEATELQPALSAALYYLVVQGKKGEDVLGSVRRALTHIDHSLSRQNCPFLAGETESLADIVLWGALYPLLQDPAYLPEELSALHSWFQTLSTQEPCQRAAETVLKQQGVLALRPYLQKQPQPSPAEGRAVTNEPEEEELATLSEEEIAMAVTAWEKGLESLPPLRPQQNPVLPVAGERNVLITSALPYVNNVPHLGNIIGCVLSADVFARYSRLRQWNTLYLCGTDEYGTATETKALEEGLTPQEICDKYHIIHADIYRWFNISFDIFGRTTTPQQTKITQDIFQQLLKRGFVLQDTVEQLRCEHCARFLADRFVEGVCPFCGYEEARGDQCDKCGKLINAVELKKPQCKVCRSCPVVQSSQHLFLDLPKLEKRLEEWLGRTLPGSDWTPNAQFITRSWLRDGLKPRCITRDLKWGTPVPLEGFEDKVFYVWFDATIGYLSITANYTDQWERWWKNPEQVDLYQFMAKDNVPFHSLVFPCSALGAEDNYTLVSHLIATEYLNYEDGKFSKSRGVGVFGDMAQDTGIPADIWRFYLLYIRPEGQDSAFSWTDLLLKNNSELLNNLGNFINRAGMFVSKFFGGYVPEMVLTPDDQRLLAHVTLELQHYHQLLEKVRIRDALRSILTISRHGNQYIQVNEPWKRIKGSEADRQRAGTVTGLAVNIAALLSVMLQPYMPTVSATIQAQLQLPPPACSILLTNFLCTLPAGHQIGTVSPLFQKLENDQIESLRQRFGGGQAKTSPKPAVVETVTTAKPQQIQALMDEVTKQGNIVRELKAQKADKNEVAAEVAKLLDLKKQLAVAEGKPPEAPKGKKKK

The target in the assay is HA-ITM2A (UniProt O43736). Briefly: affinity purification with mass spectrometry; HEK293 transfected with HA-ITM2A or empty pcDNA3.1, immunoprecipitated as for co-IP, trypsin digestion, mass spectrometry; proteins of the empty-vector control subtracted.
With B1, the binding result was “binds”.
To B2 belongs “binds”.
As for B3, the entry is “binds”.
As for B4, the entry is “binds”; as for B5, “binds”; as for B6, “binds”.
Take B7: the binding result is listed as “binds”.
Take B8: the binding result was “binds”.
To B9 belongs “binds”.
